Assay: general procedure: solution-phase peptide synthesis; DCC/DMAP (ester couplings); HBTU/TEA (fragment couplings); PyBroP/TEA (cyclisati)
Settings: for cyclisation yield: cyclisation step

Cyclo-{Tyr(tBu)-D-Hcha-D-Val-Lac-[Val-D-Hica-D-Val-Lac]2}
cyclisation yield: 22%

Fmoc-Thr(tBu)-D-Hcha-D-Val-Lac-[Val-D-Hica-D-Val-Lac]2-OBn
step yield (coupling step): 74%

Fmoc-Thr(tBu)-D-Hica-D-Val-Lac-[Val-D-Hica-D-Val-Lac]2-OBn
step yield (coupling step): 74%

Fmoc-Tyr(tBu)-D-Hica-D-Val-Lac-OBn
step yield (coupling step): 94%

Cyclo-{Thr(tBu)-D-Hica-D-Val-Lac-[Val-D-Hica-D-Val-Lac]2}
cyclisation yield (on linear precursor 6b): 33%

Fmoc-[Val-D-Hcha-D-Val-Lac]2-OBn
step yield (coupling step): 76%

Fmoc-[Val-D-Hica-D-Val-Lac]2-OBn
step yield (coupling step): 83%

Cyclo-{Thr-D-Hica-D-Val-Lac-[Val-D-Hica-D-Val-Lac]2}
step yield (late stage modification step): 94%

Cyclo-{Tyr(tBu)-D-Hcha-D-Val-Lac-[Val-D-Hcha-D-Val-Lac]2}
cyclisation yield (on linear precursor 13c): 34%

Fmoc-Tyr(tBu)-D-Hcha-D-Val-Lac-OBn
step yield (coupling step): 90%

Cyclo-{Tyr(tBu)-D-Hica-D-Val-Lac-[Val-D-Hica-D-Val-Lac]2}
cyclisation yield (on linear precursor 6c): 11%

Cyclo-{Tyr-D-Hcha-D-Val-Lac-[Val-D-Hica-D-Val-Lac]2}
step yield (late stage modification step): 87%

Fmoc-[Val-D-Hcha-D-Val-Lac]3-OBn
step yield (coupling step): 70%

Fmoc-Thr(tBu)-D-Hica-D-Val-Lac-OBn
step yield (coupling step): 83%

Fmoc-Tyr(tBu)-D-Hcha-D-Val-Lac-[Val-D-Hica-D-Val-Lac]2-OBn
step yield (coupling step): 71%

Cyclo-{Thr-D-Hcha-D-Val-Lac-[Val-D-Hica-D-Val-Lac]2}
step yield (late stage modification step): 92%

Cyclo-{Thr(tBu)-D-Hcha-D-Val-Lac-[Val-D-Hcha-D-Val-Lac]2}
cyclisation yield (on linear precursor 13b): 29%

Fmoc-Thr(tBu)-D-Hcha-D-Val-Lac-OBn
step yield (coupling step): 79%

Fmoc-Tyr(tBu)-D-Hica-D-Val-Lac-[Val-D-Hica-D-Val-Lac]2-OBn
step yield (coupling step): 81%

Cyclo-{Thr-D-Hcha-D-Val-Lac-[Val-D-Hcha-D-Val-Lac]2}
step yield (late stage modification step): 91%

Cyclo-{Thr(tBu)-D-Hcha-D-Val-Lac-[Val-D-Hica-D-Val-Lac]2}
cyclisation yield: 48%

Fmoc-Val-D-Hcha-D-Val-Lac-OBn
step yield (coupling step): 82%

Fmoc-Tyr(tBu)-D-Hcha-D-Val-Lac-[Val-D-Hcha-D-Val-Lac]2-OBn
step yield (coupling step): 74%

Cyclo-[Val-D-Hica-D-Val-Lac]3
cyclisation yield (on linear precursor 6a): 28%

Fmoc-Thr(tBu)-D-Hcha-D-Val-Lac-[Val-D-Hcha-D-Val-Lac]2-OBn
step yield (coupling step): 64%

Cyclo-{Tyr-D-Hcha-D-Val-Lac-[Val-D-Hcha-D-Val-Lac]2}
step yield (late stage modification step): 96%

Fmoc-Val-D-Hica-D-Val-Lac-OBn
step yield (coupling step): 77%

Cyclo-[Val-D-Hcha-D-Val-Lac]3
cyclisation yield (on linear precursor 13a): 23%

Fmoc-[Val-D-Hica-D-Val-Lac]3-OBn
step yield (coupling step): 62%

Cyclo-{Tyr-D-Hica-D-Val-Lac-[Val-D-Hica-D-Val-Lac]2}
step yield (late stage modification step): 75%
